Data published in PubChem BioAssay (Tox21).
“And” between values parts separate entries of the source, which are not always exact repeats. Equal entries are not always repeated. The shares of active, inactive and inconclusive entries below differ from those in the screen. Potencies beside an inconclusive call are fits to weak or partial responses and may not hold up. The source made the active and inactive calls. The call rests on the fitted dose curve; in most records, active means well fitted cell-killing curve with a large enough effect in the repeat runs; inconclusive means weak or mixed curves, or effect the other way; inactive means flat fitted curve, though single readings scatter.

Test: cAMP Responsive Elements (CRE) small molecule agonists, cell-based qHTS assay: qHTS cell viability counter screen (AID 2060914); further: nearly all actives have a fitted effect of over 50% in size
Settings: CRE-bla HEK293T viability, CellTiter-Glo luminescence, 5 h; series mostly up to 92.4 µM; activity change, negative = cytotoxicity: at the top concentration
In short: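 Cytotoxicity was measured as ATP luminescence (CellTiter-Glo, 30 min at room temperature) in the same wells as the CRE-bla FRET read-out. HEK293T CRE-bla cells had 3 h compound exposure at 37C/5% CO2.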
On the % scale 0 is the no-effect control and ±100 the full control effect; potency means the concentration at half of the fitted maximal effect.

| SMILES | activity change, negative = cytotoxicity | Potency |
| --- | --- | --- |
| CC(=O)OCC(=O)[C@H]1CC[C@H]2[C@@H]3CCC4=CC(=O)CC[C@]4(C)[C@H]3CC[C@]12C | inactive: -1.4% [at 42.5 µM] | – |
| COC(=O)[C@H]1[C@H]2C[C@@H]3c4[nH]c5cc(OC)ccc5c4CCN3C[C@H]2C[C@@H](OC(=O)COc2ccc(OC)cc2)[C@@H]1OC | – | inconclusive: 0.119 µM [cytotoxic, single point] |
| COC(=O)Nc1nc2ccc(C(=O)c3ccccc3)cc2[nH]1 | – | inconclusive: 13.3 µM [cytotoxic, single point] |
| CCCCNC(=S)NCCCC | – | inconclusive: 0.969 µM [cytotoxic, single point] |
| Cc1c(O)cccc1C(=O)N[C@@H](CSc1ccccc1)[C@H](O)CN1C[C@H]2CCCC[C@H]2C[C@H]1C(=O)NC(C)(C)C | – | inconclusive: 66.8 µM [cytotoxic] |
| O=C(O)c1cc(C(=O)O)cc(S(=O)(=O)O)c1 | – | inconclusive: 69.4 µM [cytotoxic, partial curve, poor fit] |
| CCO[Si](CCCN=C=O)(OCC)OCC | – | inconclusive: 6.86 µM [rising, partial curve, poor fit] |
| CC(C)[C@@H]1CC[C@@H](C)CC1=O | – | inactive |
| [Cu+] | – | inconclusive: 27.3 µM [cytotoxic, single point] |
| CC(C)OC(=O)C(C)(C)Oc1ccc(C(=O)c2ccc(Cl)cc2)cc1 | – | inconclusive: 243 nM [cytotoxic, single point] and inconclusive: 33.5 µM [cytotoxic, partial curve, poor fit] |
| C[Si](C)(C)N[Si](C)(C)C | – | inconclusive: 27.3 µM [cytotoxic, single point] |
| COC(=O)c1c(Cl)c(Cl)c(C(=O)OC)c(Cl)c1Cl | – | inconclusive: 770 nM [cytotoxic, single point] and inconclusive: 243 nM [cytotoxic, single point] |
| CC1(O)CSC(C)(O)CS1 (configuration not stated) | inactive: 0.913% | – |
| C=CC(=O)OCC1CC2CC1C1CCC(COC(=O)C=C)C21 (configuration not stated) | – | inconclusive: 68.6 µM [rising, single point] |
| O=C(N[C@H](CO)[C@H](O)c1ccc([N+](=O)[O-])cc1)C(Cl)Cl | – | inconclusive: 6.11 µM [rising, full curve, poor fit] |
| CC12CCC(C(=O)C1=O)C2(C)C (configuration not stated) | inactive: -9.43% | – |
| CCCN(CCc1cccs1)[C@H]1CCc2c(O)cccc2C1 | – | inconclusive: 33.5 µM [cytotoxic, single point] |
| Cc1c(C)n(CCN(C)C)c2ccc(C(=O)OCCN(C)C)cc12 | – | inconclusive: 29.8 µM [cytotoxic, partial curve, poor fit] |
| Cc1cc(C(C)(C)C)c(O)c(C(C)(C)C)c1 | – | inconclusive: 0.668 µM [cytotoxic, single point] |
| CCCCCCCC(=O)OC | – | inconclusive: 10.9 µM [cytotoxic, full curve, poor fit] |
| CN(C)CCCN1c2ccccc2CCc2ccccc21 | – | inconclusive: 7.5 µM [cytotoxic, single point] |
| Nc1ccncc1N | inactive: 3.31% [at 42.5 µM] | – |
| O=C(O)C(=O)Cc1ccccc1 | inactive: 13.2% | – |
| O=C1OC(O)C(C(Cl)Cl)=C1Cl (configuration not stated) | inactive: 17.6% | – |
| CCOC(=O)C(C)C(C)=O (configuration not stated) | inactive: 0.254% | – |
| CCCCC(C)C(=O)O (configuration not stated) | inactive: 3.31% | – |
| CC1(C)C(=O)N(Br)C(=O)N1Br | inactive: 1.79% | – |

A stretch of the results above, as a working copy:

| SMILES | activity change, negative = cytotoxicity | Potency |
| --- | --- | --- |
| CC12CCC(C(=O)C1=O)C2(C)C (configuration not stated) | inactive: -9.43% | – |
| CCCN(CCc1cccs1)[C@H]1CCc2c(O)cccc2C1 | – | inconclusive: 33.5 µM [cytotoxic, single point] |
| Cc1c(C)n(CCN(C)C)c2ccc(C(=O)OCCN(C)C)cc12 | – | inconclusive: 29.8 µM [cytotoxic, partial curve, poor fit] |
| Cc1cc(C(C)(C)C)c(O)c(C(C)(C)C)c1 | – | inconclusive: 0.668 µM [cytotoxic, single point] |
| CCCCCCCC(=O)OC | – | inconclusive: 10.9 µM [cytotoxic, full curve, poor fit] |
